This note sets out measurements from paper PMC7819943, “Rice protein-binding microarrays: a tool to detect cis-acting elements near promoter regions in rice”.

The chains behind the UniProt entries cited, without tags or fusion partners.
UniProt Q0JBA9, entry or part of it: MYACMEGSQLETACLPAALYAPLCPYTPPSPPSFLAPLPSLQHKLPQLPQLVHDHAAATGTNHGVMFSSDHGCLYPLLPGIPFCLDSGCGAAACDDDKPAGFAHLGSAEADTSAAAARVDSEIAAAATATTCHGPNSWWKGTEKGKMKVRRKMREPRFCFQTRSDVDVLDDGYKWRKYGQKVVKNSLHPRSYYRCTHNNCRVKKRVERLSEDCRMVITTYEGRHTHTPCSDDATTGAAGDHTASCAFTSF

The list shows a part of the results.

The target in this assay is OsWRKY34 (Oryza sativa, UniProt Q0JBA9 1-250). In words: protein-binding microarray (RPBM); PBS, 2% BSA, 51.3 ng/ul salmon testes DNA, 50 uM zinc acetate, 200 nM TF, 25 C, 1 h; high values mean tight binding. Conditions: protein: recombinant; tags: N-terminal polyhistidine and DsRed monomer fusion (pET32a); label: CyDye5-dUTP incorporated in the synthesized complementary strand; 3' TTTTT single-stranded linker to array surface; dsDNA, one strand shown. Summed up: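 Binding signal is defined as the fluorescence intensity of each feature in arbitrary units, read on an Axon 4000B scanner. Transcription factors with N-terminal polyhistidine and DsRed fusions came from E. coli BL21-CodonPlus and were purified on Ni–NTA. They were incubated at 200 nM for 1 h at 25 °C on a custom Agilent array that had been made double-stranded with Cy5-dUTP, with 50 µM zinc acetate present, and the array was washed.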
“ATCTGTTTTGGCACAACTTCATTTTTCCTTTTTTTTTTTTCGGAGTCACCTAGTGCAG”: the binding signal was 10100 fluorescence intensity (a.u.).
For “AAATCATGTGCATCCTACCCTTCTGTTTCTTGCTTCGGAACGGAGTCACCTAGTGCAG” the value was 8290 fluorescence intensity (a.u.); for “ATTATAGCCATTCTCTCCAGCCACCCTCTCGCCTCCTCCTCGGAGTCACCTAGTGCAG”, 8640 fluorescence intensity (a.u.).
As for “GTCCTGTATAGCTGTAAGTATATATGATCATTCATTGCTCCGGAGTCACCTAGTGCAG”, the figure is 8560 fluorescence intensity (a.u.).
For “AGTTCAGGGTTTCAGACTCTTAAGAAGTTCAGATTTTTCTCGGAGTCACCTAGTGCAG” the value was 8140 fluorescence intensity (a.u.).
“GCCTGCCTGCCTGTGAATTTTTTTTTTGTTTTCAATTTGTCGGAGTCACCTAGTGCAG”: the binding signal was 9470 fluorescence intensity (a.u.).
For “AAACATATTTACAATGGCATGAATCCAATTTACCCTTTTTCGGAGTCACCTAGTGCAG” the value was 10100 fluorescence intensity (a.u.).
For “CCTCACCATCCAACCTCGCCACCTGACGATTCCCCTAAGCCGGAGTCACCTAGTGCAG” the value was 9630 fluorescence intensity (a.u.); for “TTCTCATGCTTTGACGCCACCATTAAGCTTTGGCTTTTCTCGGAGTCACCTAGTGCAG”, 8600 fluorescence intensity (a.u.).
For “GTGGTTTTGCAATGTGGTTTTTAATCTAATATGTATATACCGGAGTCACCTAGTGCAG” the value was 8080 fluorescence intensity (a.u.); for “TGGTTGTTCTCTCATGCTCTCACACACTTGGATGCTAGCTCGGAGTCACCTAGTGCAG”, 8150 fluorescence intensity (a.u.); for “ATCCGGAATTGTGATCCCTGCTGATTACTCGCTTGATAAACGGAGTCACCTAGTGCAG”, 10900 fluorescence intensity (a.u.).
For “TGTTTGGCGCTGATGCGCTACGTTTGTTAACTGTTGTCCGCGGAGTCACCTAGTGCAG”, the binding signal is 9210 fluorescence intensity (a.u.).
For “AGGGTCGTCTCTTGACTAGCAGTGTCAATTGACCAGTTTGCGGAGTCACCTAGTGCAG” the value was 8600 fluorescence intensity (a.u.); for “TGCGCCAGCCGCCGTCGACCTCGCCGCCAACCGCGCGCCGCGGAGTCACCTAGTGCAG”, 9250 fluorescence intensity (a.u.).
As for “ATTACTCCCCTCGGACCGACATTTCCACTTTCTAACAAACCGGAGTCACCTAGTGCAG”, the figure is 8760 fluorescence intensity (a.u.).
For “TTCTTTTTTTTCGCCATTTCTTTCTATTTTTTTAATCTTTCGGAGTCACCTAGTGCAG” the value was 11000 fluorescence intensity (a.u.); for “GAACCAAAATGATTATATTGCCCTTTGCTTTCCTACTTTACGGAGTCACCTAGTGCAG”, 11000 fluorescence intensity (a.u.).
For “CCACGTGATTGTTCTTTCTGTTCCTTTTTTTATGGGATTGCGGAGTCACCTAGTGCAG”, the binding signal is 9000 fluorescence intensity (a.u.).
For “ATATAAAATCTTCACACTGTTTTGTGCCGGTACTTTCCAACGGAGTCACCTAGTGCAG” the value was 8900 fluorescence intensity (a.u.); for “ACCCCTACCCATTCTCTCTCTCTCTCTCTCTCTAGCTAGCCGGAGTCACCTAGTGCAG”, 9690 fluorescence intensity (a.u.); for “TTTTTACAACCCTGCGATTCAGATAGACCTTACCATTTTTCGGAGTCACCTAGTGCAG”, 8940 fluorescence intensity (a.u.).
As for “CCTTTTCAAGTATTATTGCTGTTTGATTCATCTCTCTTTGCGGAGTCACCTAGTGCAG”, the figure is 9510 fluorescence intensity (a.u.); as for “AATCCATTTCCCATTCGCCATTCCCCATCCTTATCTCTTACGGAGTCACCTAGTGCAG”, 8660 fluorescence intensity (a.u.).
As for “CTGTTCATCATCAGCTCGAGTGTTCAACGACCTTTGCCCTCGGAGTCACCTAGTGCAG”, the figure is 8900 fluorescence intensity (a.u.); as for “ATCCGACGCGTTCGTTGTACTGTAATCTGTAGGCGTTGACCGGAGTCACCTAGTGCAG”, 15600 fluorescence intensity (a.u.).
As to “CTTGCACCATTGTTTATTTTTTGTATTTTTCATTCCTCAACGGAGTCACCTAGTGCAG”, the binding signal is 8870 fluorescence intensity (a.u.).
As for “CACCGCTGTCATGCCTTGTCTTCGAGTCGGTCCAGGGGATCGGAGTCACCTAGTGCAG”, the figure is 8030 fluorescence intensity (a.u.).
In the case of “GCACACCCTCGCTCTGACGACCCTGTCACGTTGAGCTACGCGGAGTCACCTAGTGCAG”, the binding signal was 8240 fluorescence intensity (a.u.).
As for “ACCACCACCGTCTCAACTCTCTCTCAGACTGTCCGCCATGCGGAGTCACCTAGTGCAG”, the figure is 8030 fluorescence intensity (a.u.); as for “CTAATTTCTGCTTTTTTCATGCAGTATAATCAATCAGCCACGGAGTCACCTAGTGCAG”, 8040 fluorescence intensity (a.u.); as for “ACATTTCTGGTTTGTGGTTAAGGGACCTCAATAAATCTCGCGGAGTCACCTAGTGCAG”, 8160 fluorescence intensity (a.u.).
For “GCGCTCCCGTCGTTGTCTCCGCTGCTTTGTTTCTCGTCGCCGGAGTCACCTAGTGCAG” the value was 11600 fluorescence intensity (a.u.); for “CTGCTACTCCTCTGCCTGCATATGTGTTCAATCTCTGTTGCGGAGTCACCTAGTGCAG”, 8940 fluorescence intensity (a.u.).
As for “AACTCGATCCGCCGCCGCCACACCTTGATCCGCCACCTCCCGGAGTCACCTAGTGCAG”, the figure is 10200 fluorescence intensity (a.u.); as for “GATTTTTAAAACAACTTTCGTGTAGATTGTCTTTTTTTTTCGGAGTCACCTAGTGCAG”, 9880 fluorescence intensity (a.u.).
With “ACGCGACCTGTCCGCCGTCGACACACCCGCGCCGTTCCTGCGGAGTCACCTAGTGCAG”, the binding signal was 11000 fluorescence intensity (a.u.).
For “TTTTCCGTTCACTTCTGGACTTTTTGGCTGTGTGCCTACGCGGAGTCACCTAGTGCAG” the value was 12600 fluorescence intensity (a.u.); for “AGTAGTGCCCGACATCGTCTCCTCGATAGTTGTCTCCGTCCGGAGTCACCTAGTGCAG”, 8480 fluorescence intensity (a.u.).
For “CAGGGTTTGTCTTTTTTTTTGACGGAGGGAGTACGTCAATCGGAGTCACCTAGTGCAG” the value was 8050 fluorescence intensity (a.u.).
As for “GACTATCTTGTCGTTCGGTCCAAAAACCGGCGCCTTATGACGGAGTCACCTAGTGCAG”, the figure is 8300 fluorescence intensity (a.u.); as for “ATCCATCGGTACGTTCTTTCTTTCTTTCTTTCTGCATGATCGGAGTCACCTAGTGCAG”, 9700 fluorescence intensity (a.u.).
